Values quoted from earlier work in patent US6440990B1, “O-alkylated rapamycin derivatives and their use, particularly as immunosuppressants” (Novartis AG, priority 1992, dated 2002).
For at least one compound, name, drawing or mass did not settle the structure.

How the values were obtained:
[1] = system: Balb/c spleen cells stimulated with irradiated CBA spleen cells; conditions: cited from earlier work
[2] = system: IL-2 transcription; conditions: IL-2 reporter gene assay; cited from earlier work

## C=CC[C@@H]1/C=C(\C)C[C@H](C)C[C@H](OC)[C@H]2O[C@@](O)(C(=O)C(=O)N3CCCC[C@H]3C(=O)O[C@H](/C(C)=C/[C@@H]3CC[C@@H](O)[C@H](OC)C3)[C@H](C)[C@@H](O)CC1=O)[C@H](C)C[C@@H]2OC [FK506]
[1]
  inhibition of the mixed lymphocyte reaction (in words): very potent inhibitors
[2]
  inhibition of IL-2 transcription (in words): potent inhibitor
